Source: publication PMC12690290

Chains of the proteins cited; added tags and fusions are not shown. Lines headed by an entry give the natural chain unless they say otherwise; changes in a name come on top. Residues count along the entry.
UniProt P02787, residues 20-698: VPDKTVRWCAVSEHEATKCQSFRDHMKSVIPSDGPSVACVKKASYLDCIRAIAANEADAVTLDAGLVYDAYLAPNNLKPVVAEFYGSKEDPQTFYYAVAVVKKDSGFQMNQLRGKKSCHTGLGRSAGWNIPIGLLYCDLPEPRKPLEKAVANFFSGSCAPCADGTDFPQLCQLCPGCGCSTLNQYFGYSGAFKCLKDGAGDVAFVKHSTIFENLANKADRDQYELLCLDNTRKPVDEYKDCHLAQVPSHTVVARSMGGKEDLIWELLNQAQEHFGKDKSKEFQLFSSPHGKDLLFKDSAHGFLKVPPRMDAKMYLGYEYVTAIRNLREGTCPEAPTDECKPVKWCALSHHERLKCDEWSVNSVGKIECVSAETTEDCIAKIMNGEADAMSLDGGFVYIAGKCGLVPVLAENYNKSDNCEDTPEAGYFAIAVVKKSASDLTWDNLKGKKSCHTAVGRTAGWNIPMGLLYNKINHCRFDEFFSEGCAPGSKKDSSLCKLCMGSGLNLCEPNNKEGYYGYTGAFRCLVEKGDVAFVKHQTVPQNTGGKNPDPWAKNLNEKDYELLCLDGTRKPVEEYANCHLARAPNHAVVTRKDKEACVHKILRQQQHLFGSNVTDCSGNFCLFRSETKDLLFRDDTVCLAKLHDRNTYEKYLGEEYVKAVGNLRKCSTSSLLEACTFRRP
UniProt P02652, residues 19-100: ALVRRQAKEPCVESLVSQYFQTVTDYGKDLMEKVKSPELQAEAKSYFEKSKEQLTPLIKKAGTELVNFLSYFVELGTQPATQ
UniProt P05090, residues 21-189: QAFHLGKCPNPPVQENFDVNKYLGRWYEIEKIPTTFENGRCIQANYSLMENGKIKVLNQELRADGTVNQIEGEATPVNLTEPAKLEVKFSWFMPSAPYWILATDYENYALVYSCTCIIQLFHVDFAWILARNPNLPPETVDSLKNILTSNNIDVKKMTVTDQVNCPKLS
UniProt P00746: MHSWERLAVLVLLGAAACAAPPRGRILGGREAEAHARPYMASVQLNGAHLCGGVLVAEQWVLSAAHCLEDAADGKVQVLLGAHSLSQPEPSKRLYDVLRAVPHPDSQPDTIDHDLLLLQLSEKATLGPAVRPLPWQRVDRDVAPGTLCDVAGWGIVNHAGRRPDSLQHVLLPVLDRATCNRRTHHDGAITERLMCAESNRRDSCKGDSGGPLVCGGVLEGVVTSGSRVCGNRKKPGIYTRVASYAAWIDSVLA
UniProt P62333: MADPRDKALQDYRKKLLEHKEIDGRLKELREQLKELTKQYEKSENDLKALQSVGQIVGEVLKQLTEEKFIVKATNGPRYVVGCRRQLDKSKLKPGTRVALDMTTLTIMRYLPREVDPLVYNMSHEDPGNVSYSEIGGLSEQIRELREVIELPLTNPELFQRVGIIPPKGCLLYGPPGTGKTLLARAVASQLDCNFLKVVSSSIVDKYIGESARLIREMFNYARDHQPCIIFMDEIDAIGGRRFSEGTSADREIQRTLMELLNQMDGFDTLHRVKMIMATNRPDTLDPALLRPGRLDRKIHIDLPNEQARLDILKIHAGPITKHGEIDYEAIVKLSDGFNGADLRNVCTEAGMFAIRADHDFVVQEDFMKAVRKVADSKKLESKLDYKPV
UniProt Q92922: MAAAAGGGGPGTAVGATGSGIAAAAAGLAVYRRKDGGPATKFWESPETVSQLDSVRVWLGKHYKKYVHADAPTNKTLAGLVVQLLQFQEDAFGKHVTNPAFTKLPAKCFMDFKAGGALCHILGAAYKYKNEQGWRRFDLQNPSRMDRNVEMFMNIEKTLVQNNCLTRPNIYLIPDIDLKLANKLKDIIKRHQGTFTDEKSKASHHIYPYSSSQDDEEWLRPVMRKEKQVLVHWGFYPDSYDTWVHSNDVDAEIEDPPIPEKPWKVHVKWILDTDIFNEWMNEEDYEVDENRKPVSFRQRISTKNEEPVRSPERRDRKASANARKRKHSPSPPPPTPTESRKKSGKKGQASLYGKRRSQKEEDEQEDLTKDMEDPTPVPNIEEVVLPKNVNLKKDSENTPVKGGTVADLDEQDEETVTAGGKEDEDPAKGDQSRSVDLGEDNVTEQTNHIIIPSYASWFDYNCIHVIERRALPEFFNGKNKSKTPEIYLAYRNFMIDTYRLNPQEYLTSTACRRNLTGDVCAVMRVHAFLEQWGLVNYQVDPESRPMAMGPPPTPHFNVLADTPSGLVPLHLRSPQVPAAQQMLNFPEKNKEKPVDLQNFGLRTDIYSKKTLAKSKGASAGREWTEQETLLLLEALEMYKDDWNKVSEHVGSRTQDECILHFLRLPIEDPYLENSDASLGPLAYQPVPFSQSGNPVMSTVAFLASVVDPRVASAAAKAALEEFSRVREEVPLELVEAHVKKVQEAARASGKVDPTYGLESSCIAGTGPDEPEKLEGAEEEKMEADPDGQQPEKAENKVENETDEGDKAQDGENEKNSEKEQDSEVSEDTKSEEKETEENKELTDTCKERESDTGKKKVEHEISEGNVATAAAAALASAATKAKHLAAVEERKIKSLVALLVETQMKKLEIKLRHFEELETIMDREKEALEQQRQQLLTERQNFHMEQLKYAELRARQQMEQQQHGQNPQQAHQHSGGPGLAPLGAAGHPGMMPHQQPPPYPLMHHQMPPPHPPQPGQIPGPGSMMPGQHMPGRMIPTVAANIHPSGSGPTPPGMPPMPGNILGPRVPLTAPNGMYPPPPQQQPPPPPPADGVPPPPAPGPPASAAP
UniProt P19474: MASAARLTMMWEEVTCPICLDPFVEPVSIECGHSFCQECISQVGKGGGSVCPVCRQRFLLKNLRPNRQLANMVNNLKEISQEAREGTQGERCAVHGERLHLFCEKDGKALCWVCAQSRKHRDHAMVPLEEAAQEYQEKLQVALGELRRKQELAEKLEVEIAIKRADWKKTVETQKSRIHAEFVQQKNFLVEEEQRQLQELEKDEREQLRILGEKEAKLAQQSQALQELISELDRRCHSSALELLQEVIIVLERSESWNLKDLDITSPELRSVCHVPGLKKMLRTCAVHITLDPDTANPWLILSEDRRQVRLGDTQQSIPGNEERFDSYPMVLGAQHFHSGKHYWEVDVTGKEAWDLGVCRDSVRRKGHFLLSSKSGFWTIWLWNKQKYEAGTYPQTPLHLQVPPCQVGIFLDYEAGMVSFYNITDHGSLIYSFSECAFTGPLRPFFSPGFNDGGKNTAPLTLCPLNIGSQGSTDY
UniProt P02647, residues 19-267: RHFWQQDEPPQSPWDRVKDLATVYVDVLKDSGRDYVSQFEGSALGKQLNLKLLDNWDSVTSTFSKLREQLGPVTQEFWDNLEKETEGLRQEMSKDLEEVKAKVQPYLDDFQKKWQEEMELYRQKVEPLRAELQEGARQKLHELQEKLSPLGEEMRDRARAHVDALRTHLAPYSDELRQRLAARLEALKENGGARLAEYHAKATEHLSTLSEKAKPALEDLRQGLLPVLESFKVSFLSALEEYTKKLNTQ
UniProt P54105: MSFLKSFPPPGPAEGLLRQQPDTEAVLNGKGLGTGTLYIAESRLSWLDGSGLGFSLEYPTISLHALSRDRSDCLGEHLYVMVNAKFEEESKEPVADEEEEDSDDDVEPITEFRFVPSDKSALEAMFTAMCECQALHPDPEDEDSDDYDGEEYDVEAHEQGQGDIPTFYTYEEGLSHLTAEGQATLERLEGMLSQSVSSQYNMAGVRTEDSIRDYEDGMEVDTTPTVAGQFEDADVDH
UniProt Q9UHY7: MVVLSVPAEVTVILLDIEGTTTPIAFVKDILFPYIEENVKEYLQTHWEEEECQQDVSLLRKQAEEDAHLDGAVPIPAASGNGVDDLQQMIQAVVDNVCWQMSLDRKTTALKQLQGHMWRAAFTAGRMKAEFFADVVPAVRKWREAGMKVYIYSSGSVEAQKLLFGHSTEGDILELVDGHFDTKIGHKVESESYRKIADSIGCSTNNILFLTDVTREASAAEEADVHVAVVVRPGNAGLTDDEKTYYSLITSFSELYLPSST
UniProt P30533, residues 35-357: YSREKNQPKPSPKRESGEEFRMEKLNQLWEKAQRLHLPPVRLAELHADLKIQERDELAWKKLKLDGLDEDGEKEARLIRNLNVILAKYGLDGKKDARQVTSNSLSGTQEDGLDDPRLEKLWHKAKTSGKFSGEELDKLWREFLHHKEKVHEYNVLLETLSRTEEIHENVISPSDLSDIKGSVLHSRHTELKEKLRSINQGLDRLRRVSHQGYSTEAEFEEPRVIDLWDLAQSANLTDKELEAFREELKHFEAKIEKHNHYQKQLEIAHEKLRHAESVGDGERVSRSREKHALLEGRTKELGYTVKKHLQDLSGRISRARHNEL
UniProt P28062: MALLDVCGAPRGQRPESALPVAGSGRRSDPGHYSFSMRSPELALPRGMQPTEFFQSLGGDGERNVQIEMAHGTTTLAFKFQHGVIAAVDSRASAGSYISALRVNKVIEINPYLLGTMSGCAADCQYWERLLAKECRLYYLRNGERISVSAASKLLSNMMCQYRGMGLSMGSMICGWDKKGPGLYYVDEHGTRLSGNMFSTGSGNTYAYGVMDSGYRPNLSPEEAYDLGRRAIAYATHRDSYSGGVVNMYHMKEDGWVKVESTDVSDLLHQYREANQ
UniProt Q5VTR2: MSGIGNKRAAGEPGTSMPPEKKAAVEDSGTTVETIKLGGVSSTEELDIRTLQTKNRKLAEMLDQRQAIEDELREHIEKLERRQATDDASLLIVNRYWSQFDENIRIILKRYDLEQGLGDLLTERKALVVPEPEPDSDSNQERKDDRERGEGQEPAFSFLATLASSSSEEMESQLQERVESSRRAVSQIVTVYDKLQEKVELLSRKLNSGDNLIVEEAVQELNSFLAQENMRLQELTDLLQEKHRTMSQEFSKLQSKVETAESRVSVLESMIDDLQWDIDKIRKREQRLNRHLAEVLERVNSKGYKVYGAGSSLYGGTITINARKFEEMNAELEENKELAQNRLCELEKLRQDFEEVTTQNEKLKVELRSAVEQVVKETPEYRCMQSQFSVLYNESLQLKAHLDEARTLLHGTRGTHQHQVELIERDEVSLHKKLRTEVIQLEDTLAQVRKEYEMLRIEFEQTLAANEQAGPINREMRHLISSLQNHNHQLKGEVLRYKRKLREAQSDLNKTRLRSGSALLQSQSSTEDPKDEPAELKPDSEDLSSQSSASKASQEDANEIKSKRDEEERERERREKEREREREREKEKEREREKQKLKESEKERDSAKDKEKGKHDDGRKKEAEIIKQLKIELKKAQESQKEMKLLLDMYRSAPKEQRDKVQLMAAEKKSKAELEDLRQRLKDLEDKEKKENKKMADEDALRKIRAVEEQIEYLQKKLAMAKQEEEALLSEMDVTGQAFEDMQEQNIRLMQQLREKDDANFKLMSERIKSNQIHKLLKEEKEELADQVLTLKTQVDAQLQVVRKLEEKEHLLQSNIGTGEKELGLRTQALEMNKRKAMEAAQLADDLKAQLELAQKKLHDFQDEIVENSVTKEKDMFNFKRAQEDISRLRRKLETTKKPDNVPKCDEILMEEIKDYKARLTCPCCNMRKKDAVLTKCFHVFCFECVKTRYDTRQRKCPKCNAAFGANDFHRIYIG

T1: mesoheme–rabbit hemopexin (1:1 heme–HPX complex) (rabbit) (UniProt P20058)
T1 sequence: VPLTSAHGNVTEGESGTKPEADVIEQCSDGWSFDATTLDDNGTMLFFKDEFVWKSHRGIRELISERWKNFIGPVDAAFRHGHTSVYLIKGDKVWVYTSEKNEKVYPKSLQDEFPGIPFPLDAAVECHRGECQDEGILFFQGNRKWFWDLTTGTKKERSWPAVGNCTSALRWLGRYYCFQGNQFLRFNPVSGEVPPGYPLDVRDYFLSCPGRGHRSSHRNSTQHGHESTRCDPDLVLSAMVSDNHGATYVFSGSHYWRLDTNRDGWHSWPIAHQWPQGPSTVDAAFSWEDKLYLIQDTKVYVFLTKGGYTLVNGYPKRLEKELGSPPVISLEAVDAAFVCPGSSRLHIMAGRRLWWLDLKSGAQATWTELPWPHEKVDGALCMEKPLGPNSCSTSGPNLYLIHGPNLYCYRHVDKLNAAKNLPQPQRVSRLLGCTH


Assays:
[1] = target: T1, mesoheme–rabbit hemopexin (1:1 heme–HPX complex) (rabbit); test: affinity purification with mass spectrometry; heme–HPX or holo-human Tf Affi-Gel 15 against ovalbumin Affi-Gel 15; HepG2 whole-cell extracts (0.5% Triton X-100, HEPES pH 7.4, 150 mM NaCl); 2-fold or greater over the negative control counted as specifically bound; only the target purified
[2] = target: holo-human transferrin (human) (UniProt P02787); test: affinity purification with mass spectrometry; proto-heme–human HPX, mesoheme–rabbit HPX or holo-human Tf Affi-Gel 15; detergent extracts of primary human hepatocytes; proteins found on underivatized, mouse IgG or ovalbumin resins filtered out; only the target purified
[3] = target: T1, mesoheme–rabbit hemopexin (1:1 heme–HPX complex) (rabbit); test: as above
[4] = target: holo-human transferrin (human) (UniProt P02787); test: affinity purification with mass spectrometry; heme–HPX or holo-human Tf Affi-Gel 15 against ovalbumin Affi-Gel 15; HepG2 whole-cell extracts (0.5% Triton X-100, HEPES pH 7.4, 150 mM NaCl); 2-fold or greater over the negative control counted as specifically bound; only the target purified

Molecule	binding [1]	binding [4]	also measured
Apolipoprotein A-II (from UniProt P02652 19-100)			binding [2]: binds; binding [3]: binds
Apolipoprotein D (from UniProt P05090 21-189)			binding [2]: binds; binding [3]: binds
Cathepsin H (human (endogenous in HepG2)) (enzyme)	binds		
Complement factor D (from UniProt P00746) (enzyme)			binding [2]: binds
Proteasome 26S subunit (from UniProt P62333 1-389)		binds	
SWI/SNF-related BAF chromatin remodeling complex subunit C1 (from UniProt Q92922 1-1105)		binds	
Tripartite motif-containing protein 21 (from UniProt P19474 1-475)	binds	binds	
TruB pseudouridine synthase family member 2 (enzyme, UniProt O95900 11-331) GLFAVYKPPGLKWKHLRDTVELQLLKGLNARKPPAPKQRVRFLLGPMEGSEEKELTLTATSVPSFINHPLVCGPAFAHLKVGVGHRLDAQASGVLVLGVGHGCRLLTDMYNAHLTKDYTVRGLLGKATDDFREDGRLVEKTTYDHVTREKLDRILAVIQGSHQKALVMYSNLDLKTQEAYEMAVRGLIRPMNKSPMLITGIRCLYFAPPEFLLEVQCMHETQKELRKLVHEIGLELKTTAVCTQVRRTRDGFFTLDSALLRTQWDLTNIQDAIRAATPQVAAELEKSLSPGLDTKQLPSPGWSWDSQGPSSTLGLERGAGQ	binds	binds	
Peptide deformylase (enzyme, UniProt Q9HBH1 40-243) EGPALRRSYWRHLRRLVLGPPEPPFSHVCQVGDPVLRGVAAPVERAQLGGPELQRLTQRLVQVMRRRRCVGLSAPQLGVPRQVLALELPEALCRECPPRQRALRQMEPFPLRVFVNPSLRVLDSRLVTFPEGCESVAGFLACVPRFQAVQISGLDPNGEQVVWQASGWAARIIQHEMDHLQGCLFIDKMDSRTFTNVYWMKVND	binds		
Isocitrate dehydrogenase (NAD+) subunit alpha (enzyme, UniProt P50213 28-366) TGGVQTVTLIPGDGIGPEISAAVMKIFDAAKAPIQWEERNVTAIQGPGGKWMIPSEAKESMDKNKMGLKGPLKTPIAAGHPSMNLLLRKTFDLYANVRPCVSIEGYKTPYTDVNIVTIRENTEGEYSGIEHVIVDGVVQSIKLITEGASKRIAEFAFEYARNNHRSNVTAVHKANIMRMSDGLFLQKCREVAESCKDIKFNEMYLDTVCLNMVQDPSQFDVLVMPNLYGDILSDLCAGLIGGLGVTPSGNIGANGVAIFESVHGTAPDIAGKDMANPTALLLSAVMMLRHMGLFDHAARIEAACFATIKDGKSLTKDLGGNAKCSDFTEEICRRVKDLD		binds	
Basic leucine zipper and W2 domain containing protein 2 (protein, UniProt Q9Y6E2 1-419) MNKHQKPVLTGQRFKTRKRDEKEKFEPTVFRDTLVQGLNEAGDDLEAVAKFLDSTGSRLDYRRYADTLFDILVAGSMLAPGGTRIDDGDKTKMTNHCVFSANEDHETIRNYAQVFNKLIRRYKYLEKAFEDEMKKLLLFLKAFSETEQTKLAMLSGILLGNGTLPATILTSLFTDSLVKEGIAASFAVKLFKAWMAEKDANSVTSSLRKANLDKRLLELFPVNRQSVDHFAKYFTDAGLKELSDFLRVQQSLGTRKELQKELQERLSQECPIKEVVLYVKEEMKRNDLPETAVIGLLWTCIMNAVEWNKKEELVAEQALKHLKQYAPLLAVFSSQGQSELILLQKVQEYCYDNIHFMKAFQKIVVLFYKADVLSEEAILKWYKEAHVAKGKSVFLDQMKKFVEWLQNAEEESESEGEEN		binds	

Continued, in another order:

binding [1]	binding [4]	Molecule	also measured
binds		Apolipoprotein A-1 (from UniProt P02647 19-267)	
binds		Chloride nucleotide-sensitive channel 1A (from UniProt P54105 1-237)	
binds		Enolase-phosphatase I (from UniProt Q9UHY7 1-261) (enzyme)	
binds		LRP1 receptor-associated protein (RAP), endogenous (from UniProt P30533 35-357)	
binds		Proteasome subunit βtype-8 (from UniProt P28062)	
	binds	Ring finger protein 20 (from UniProt Q5VTR2 1-975) (enzyme)	
binds		Nuclear FMR1 interacting protein 2 (protein, UniProt Q7Z417 1-695) MEEKPGQPQPQHHHSHHHPHHHPQQQQQQPHHHHHYYFYNHSHNHHHHHHHQQPHQYLQHGAEGSPKAQPKPLKHEQKHTLQQHQETPKKKTGYGELNGNAGEREISLKNLSSDEATNPISRVLNGNQQVVDTSLKQTVKANTFGKAGIKTKNFIQKNSMDKKNGKSYENKSGENQSVDKSDTIPIPNGVVTNNSGYITNGYMGKGADNDGSGSESGYTTPKKRKARRNSAKGCENLNIVQDKIMQQETSVPTLKQGLETFKPDYSEQKGNRVDGSKPIWKYETGPGGTSRGKPAVGDMLRKSSDSKPGVSSKKFDDRPKGKHASAVASKEDSWTLFKPPPVFPVDNSSAKIVPKISYASKVKENLNKTIQNSSVSPTSSSSSSSSTGETQTQSSSRLSQVPMSALKSVTSANFSNGPVLAGTDGNVYPPGGQPLLTTAANTLTPISSGTDSVLQDMSLTSAAVEQIKTSLFIYPSNMQTMLLSTAQVDLPSQTDQQNLGDIFQNQWGLSFINEPSAGPETVTGKSSEHKVMEVTFQGEYPATLVSQGAEIIPSGTEHPVFPKAYELEKRTSPQVLGSILKSGTTSESGALSLEPSHIGDLQKADTSSQGALVFLSKDYEIESQNPLASPTNTLLGSAKEQRYQRGLERNDSWGSFDLRAAIVYHTKEMESIWNLQKQDPKRIITYNEAMDSPDQ	
binds		Cytochrome c oxidase subunit family member (protein, UniProt Q5JTJ3 1-125) MGPGGPLLSPSRGFLLCKTGWHSNRLLGDCGPHTPVSTALSFIAVGMAAPSMKERQVCWGARDEYWKCLDENLEDASQCKKLRSSFESSCPQQWIKYFDKRRDYLKFKEKFEAGQFEPSETTAKS	
binds		DEP domain containing 1 (protein, UniProt Q5TB30 1-811) MESQGVPPGPYRATKLWNEVTTSFRAGMPLRKHRQHFKKYGNCFTAGEAVDWLYDLLRNNSNFGPEVTRQQTIQLLRKFLKNHVIEDIKGRWGSENVDDNNQLFRFPATSPLKTLPRRYPELRKNNIENFSKDKDSIFKLRNLSRRTPKRHGLHLSQENGEKIKHEIINEDQENAIDNRELSQEDVEEVWRYVILIYLQTILGVPSLEEVINPKQVIPQYIMYNMANTSKRGVVILQNKSDDLPHWVLSAMKCLANWPRSNDMNNPTYVGFERDVFRTIADYFLDLPEPLLTFEYYELFVNILVVCGYITVSDRSSGIHKIQDDPQSSKFLHLNNLNSFKSTECLLLSLLHREKNKEESDSTERLQISNPGFQERCAKKMQLVNLRNRRVSANDIMGGSCHNLIGLSNMHDLSSNSKPRCCSLEGIVDVPGNSSKEASSVFHQSFPNIEGQNNKLFLESKPKQEFLLNLHSEENIQKPFSAGFKRTSTLTVQDQEELCNGKCKSKQLCRSQSLLLRSSTRRNSYINTPVAEIIMKPNVGQGSTSVQTAMESELGESSATINKRLCKSTIELSENSLLPASSMLTGTQSLLQPHLERVAIDALQLCCLLLPPPNRRKLQLLMRMISRMSQNVDMPKLHDAMGTRSLMIHTFSRCVLCCAEEVDLDELLAGRLVSFLMDHHQEILQVPSYLQTAVEKHLDYLKKGHIENPGDGLFAPLPTYSYCKQISAQEFDEQKVSTSQAAIAELLENIIKNRSLPLKEKRKKLKQFQKEYPLIYQKRFPTTESEAALFGDKPTIKQPMLILRKPKFRSLR	
binds		F-Box protein 2 (protein, UniProt Q9UK22 1-296) MDGDGDPESVGQPEEASPEEQPEEASAEEERPEDQQEEEAAAAAAYLDELPEPLLLRVLAALPAAELVQACRLVCLRWKELVDGAPLWLLKCQQEGLVPEGGVEEERDHWQQFYFLSKRRRNLLRNPCGEEDLEGWCDVEHGGDGWRVEELPGDSGVEFTHDESVKKYFASSFEWCRKAQVIDLQAEGYWEELLDTTQPAIVVKDWYSGRSDAGCLYELTVKLLSEHENVLAEFSSGQVAVPQDSDGGGWMEISHTFTDYGPGVRFVRFEHGGQDSVYWKGWFGARVTNSSVWVEP	
	binds	Hemopexin (human), found in HepG2 isolates (protein, UniProt P02790 24-462) TPLPPTSAHGNVAEGETKPDPDVTERCSDGWSFDATTLDDNGTMLFFKGEFVWKSHKWDRELISERWKNFPSPVDAAFRQGHNSVFLIKGDKVWVYPPEKKEKGYPKLLQDEFPGIPSPLDAAVECHRGECQAEGVLFFQGDREWFWDLATGTMKERSWPAVGNCSSALRWLGRYYCFQGNQFLRFDPVRGEVPPRYPRDVRDYFMPCPGRGHGHRNGTGHGNSTHHGPEYMRCSPHLVLSALTSDNHGATYAFSGTHYWRLDTSRDGWHSWPIAHQWPQGPSAVDAAFSWEEKLYLVQGTQVYVFLTKGGYTLVSGYPKRLEKEVGTPHGIILDSVDAAFICPGSSRLHIMAGRRLWWLDLKSGAQATWTELPWPHEKVDGALCMEKSLGPNSCSANGPGLYLIHGPNLYCYSDVEKLNAAKALPQPQNVTSLLGCTH	
	binds	Gamma glutamyl hydrolase (enzyme, UniProt Q92820 25-318) RPHGDTAKKPIIGILMQKCRNKVMKNYGRYYIAASYVKYLESAGARVVPVRLDLTEKDYEILFKSINGILFPGGSVDLRRSDYAKVAKIFYNLSIQSFDDGDYFPVWGTCLGFEELSLLISGECLLTATDTVDVAMPLNFTGGQLHSRMFQNFPTELLLSLAVEPLTANFHKWSLSVKNFTMNEKLKKFFNVLTTNTDGKIEFISTMEGYKYPVYGVQWHPEKAPYEWKNLDGISHAPNAVKTAFYLAEFFVNEARKNNHHFKSESEEEKALIYQFSPIYTGNISSFQQCYIFD	

Results are given in words; binding and its absence hold for the method and conditions named. In cells and extracts the contact can be indirect. These calls come from enrichment with a bait or labelling near it, and not all partners need be listed.
